The list shows a part of the results. Values are worked out from sequencing counts and are noisy.
B1: unnamed (peptide)
chain: ALCNFAFYGGKSLYHQYIPTFHVYNLFVFLWLINFV
B2: unnamed (peptide)
chain: MRNGTVITEFILLGFPVIQGLQTPLFIAIFLTYILT
B3: unnamed (peptide)
chain: FAIGGLVGTLIVKMIGKVLGRKHTLLANNGFAISAA
B4: unnamed (peptide)
chain: NTQRKDPYYGADWGIGWWTAVVIMLIVGIITPVFYL
B5: unnamed (peptide)
chain: MLREFSKWGVEASPGKAWERKRSLLRGALGRYRGAT
B6: unnamed (peptide)
chain: YICGLLYMIGILFLLIQPCIRIIEQSRRKYMDGAHV
B7: unnamed (peptide)
chain: FLVPIAVGAALADVLILVLLAYFIGLKHHHAGYEQF
B8: unnamed (peptide)
chain: SSDIIILTITRCIAILYIYFQFQNLRQLGSKYILGI
B9: unnamed (peptide)
chain: GPKHPALKITRRYAFAHILTVLQCATVIGFSYWASE
B10: unnamed (peptide)
chain: ELNKKTPLLTEGQAICFTILGVLTSLVVLGTVVITF
B11: unnamed (peptide)
chain: LCGSALLLVSLSIAFYCIVYLEWYCGIGEYDVKYPA
B12: unnamed (peptide)
chain: SRLPAVRCLALFMGTAVLVHLALTLVWLPASAVLHE

Biological target: T1, Homer1 EVH1 domain
T1 chain: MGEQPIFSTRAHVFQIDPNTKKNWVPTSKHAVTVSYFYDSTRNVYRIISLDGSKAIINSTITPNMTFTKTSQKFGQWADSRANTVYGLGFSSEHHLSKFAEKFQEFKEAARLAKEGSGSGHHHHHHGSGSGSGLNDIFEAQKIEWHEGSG
Assay: enrichment score (AUC of log2 frequency ratio across FACS sorting rounds) (log2 AUC); higher = stronger enrichment for Homer1 EVH1 binding

Binder | enrichment score
B1 | -0.466
B2 | 1.63
B3 | 0.253
B4 | -2.53
B5 | 2.93
B6 | 2.54
B7 | 5.15
B8 | -1.74
B9 | 0.639
B10 | 3.27
B11 | 1.61
B12 | 3.55

From the supplement of paper PMC11237882
